PubChem BioAssay AID1259254 – NCATS, 2017
Here is an unselected part of about 59,000 reagents tested. In the full data, about 1,550 (2.6%) got an active call. 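G2 share is only a proxy for re-replication; each gene was hit by three separate siRNAs, and active genes were retested.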 Unmarked entries are inactive. Reagents against one gene are numbered here. Not all columns of the deposit are shown. Not stated in the record: the amount of reagent.

Test: 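Finding genes that stop cells copying their DNA twice in one cycle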 (primary screen)
System: human HCT116 colorectal cancer cells
Reagent: single siRNA against human genes
Time to read-out: 3 days
Measured: 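Imaged Hoechst DNA stain sorts each cell into a cycle phase by DNA amount; per plate, G2 fraction set to 0% for non-targeting and 100% for GMNN siRNA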
Scale: G2 robust z-score and G2 cells, % of GMNN control: higher = more G2 cells, more excess DNA replication
Hit rule: 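Active siRNAs have a G2 robust z of 5 or more median absolute deviations over the median, which in these data means about 38% or higher of GMNN control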

gene | reagent no. | G2 robust z-score | G2 cells, % of GMNN control
MAPT | 1 | 0.876 | 9.13
MAPT | 2 | -0.916 | -3.48
MAPT | 3 | 0.804 | 8.63
MLPH | 1 | -0.767 | -2.43
MLPH | 2 | -0.14 | 1.98
MLPH | 3 | -0.495 | -0.517
CDC14A | 1 | -1.13 | -4.96
CDC14A | 2 | -0.554 | -0.934
CDC14A | 3 | -0.961 | -3.79
LRP4 | 1 | 4.34 | 33.5
LRP4 | 2 | 7.12 (active) | 53.1
LRP4 | 3 | 3.62 | 28.4
LOC729268 (retired record) | 1 | -0.909 | -3.43
LOC729268 (retired record) | 2 | -0.675 | -1.78
LOC729268 (retired record) | 3 | -0.947 | -3.7
DBNDD2 | 1 | 0.0898 | 3.6
DBNDD2 | 2 | 4.68 | 35.9
DBNDD2 | 3 | 5.82 (active) | 43.9
NDUFA3P3 | 1 | -0.104 | 2.24
NDUFA3P3 | 2 | -0.0899 | 2.33
NDUFA3P3 | 3 | -0.517 | -0.669
PEX1 | 1 | -1.14 | -5.07
PEX1 | 2 | 2.55 | 20.9
PEX1 | 3 | -0.985 | -3.96
MICU2 | 1 | 0.857 | 9
MICU2 | 2 | -0.399 | 0.158
MICU2 | 3 | -0.531 | -0.769
ACP3 | 1 | 0.289 | 5
ACP3 | 2 | 2.12 | 17.9
ACP3 | 3 | 2.05 | 17.4
OR2D3 | 1 | -0.782 | -2.54
OR2D3 | 2 | -0.137 | 2.01
OR2D3 | 3 | -0.223 | 1.4
ARFIP1 | 1 | 0.203 | 4.4
ARFIP1 | 2 | 3.65 | 28.7
ARFIP1 | 3 | -0.674 | -1.77
ZNF614 | 1 | -0.4 | 0.152
ZNF614 | 2 | -0.225 | 1.38
ZNF614 | 3 | 4.65 | 35.7
BPIFA3 | 1 | 1.96 | 16.7
BPIFA3 | 2 | 1.45 | 13.2
BPIFA3 | 3 | -0.837 | -2.92
FAM228A | 1 | 0.932 | 9.52
FAM228A | 2 | 0.62 | 7.33
FAM228A | 3 | 0.34 | 5.36
MED13 | 1 | -0.448 | -0.184
MED13 | 2 | -0.628 | -1.45
MED13 | 3 | 0.303 | 5.1
CLIC4 | 1 | 0.63 | 7.4
CLIC4 | 2 | -0.494 | -0.505
CLIC4 | 3 | 2.75 | 22.3
CYP2R1 | 1 | 0.072 | 3.47
CYP2R1 | 2 | -0.00699 | 2.92
CYP2R1 | 3 | -1.12 | -4.92
TCP1 | 1 | 0.61 | 7.26
TCP1 | 2 | 1.01 | 10.1
TCP1 | 3 | 0.17 | 4.17
PCDHB1 | 1 | 1.41 | 12.9
PCDHB1 | 2 | 0.0094 | 3.03
PCDHB1 | 3 | -0.535 | -0.797
GRIN2A | 1 | 1.17 | 11.2
GRIN2A | 2 | -1.07 | -4.59
GRIN2A | 3 | -0.496 | -0.523
CKS1BP6 | 1 | -0.704 | -1.99
CKS1BP6 | 2 | 0.0481 | 3.31
CKS1BP6 | 3 | 1.22 | 11.5
YIPF4 | 1 | 0.862 | 9.03
YIPF4 | 2 | -0.354 | 0.477
YIPF4 | 3 | -0.203 | 1.54
PIWIL1 | 1 | -0.269 | 1.07
PIWIL1 | 2 | 2.76 | 22.4
PIWIL1 | 3 | 0.392 | 5.73
JPX | 1 | 0.0212 | 3.12
JPX | 2 | -0.329 | 0.649
JPX | 3 | 1.95 | 16.7
IFIT3 | 1 | -0.566 | -1.01
IFIT3 | 2 | -1.04 | -4.33
IFIT3 | 3 | 0.667 | 7.66
STK11IP | 1 | 2.3 | 19.2
STK11IP | 2 | 1.7 | 14.9
STK11IP | 3 | 0.0341 | 3.21
IL4I1 | 1 | -1.28 | -6.03
IL4I1 | 2 | -0.561 | -0.979
IL4I1 | 3 | -0.93 | -3.57
FAM217B | 1 | -0.901 | -3.37
FAM217B | 2 | 0.473 | 6.3
FAM217B | 3 | -0.198 | 1.58

Targets listed so far whose target name begins with D or d:
gene | reagent no. | G2 robust z-score | G2 cells, % of GMNN control
DBNDD2 | 1 | 0.0898 | 3.6
DBNDD2 | 2 | 4.68 | 35.9
DBNDD2 | 3 | 5.82 (active) | 43.9
